Test results as given in the supplement of paper PMC10849652.
The other results are listed elsewhere or left out.

Sequences of proteins named here, by UniProt entry; tags and fusion partners are left off. A change or cut given only in a name is not applied to a line headed by its entry.
UniProt Q92769, whole entry, looked up: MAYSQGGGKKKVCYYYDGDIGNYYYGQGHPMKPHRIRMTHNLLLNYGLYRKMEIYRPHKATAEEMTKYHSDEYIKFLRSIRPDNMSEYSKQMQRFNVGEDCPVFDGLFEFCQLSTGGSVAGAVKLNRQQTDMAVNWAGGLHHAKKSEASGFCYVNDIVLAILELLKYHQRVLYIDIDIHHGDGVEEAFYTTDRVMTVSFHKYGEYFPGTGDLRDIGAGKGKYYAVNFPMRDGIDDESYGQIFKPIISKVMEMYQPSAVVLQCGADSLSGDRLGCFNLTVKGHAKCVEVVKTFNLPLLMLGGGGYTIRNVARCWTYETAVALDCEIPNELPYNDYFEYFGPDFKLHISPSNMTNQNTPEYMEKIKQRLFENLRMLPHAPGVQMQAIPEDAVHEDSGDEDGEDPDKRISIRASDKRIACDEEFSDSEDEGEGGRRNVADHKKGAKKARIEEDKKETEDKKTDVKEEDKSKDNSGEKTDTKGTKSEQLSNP
UniProt Q6PII5: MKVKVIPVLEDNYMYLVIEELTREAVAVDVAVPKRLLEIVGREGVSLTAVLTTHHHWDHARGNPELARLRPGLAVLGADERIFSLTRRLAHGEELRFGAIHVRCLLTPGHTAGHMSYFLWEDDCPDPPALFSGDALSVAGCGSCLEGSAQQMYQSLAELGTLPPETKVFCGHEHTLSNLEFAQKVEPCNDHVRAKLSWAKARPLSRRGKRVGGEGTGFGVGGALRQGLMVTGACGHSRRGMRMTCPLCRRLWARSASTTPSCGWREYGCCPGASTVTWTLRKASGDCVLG
UniProt P13807: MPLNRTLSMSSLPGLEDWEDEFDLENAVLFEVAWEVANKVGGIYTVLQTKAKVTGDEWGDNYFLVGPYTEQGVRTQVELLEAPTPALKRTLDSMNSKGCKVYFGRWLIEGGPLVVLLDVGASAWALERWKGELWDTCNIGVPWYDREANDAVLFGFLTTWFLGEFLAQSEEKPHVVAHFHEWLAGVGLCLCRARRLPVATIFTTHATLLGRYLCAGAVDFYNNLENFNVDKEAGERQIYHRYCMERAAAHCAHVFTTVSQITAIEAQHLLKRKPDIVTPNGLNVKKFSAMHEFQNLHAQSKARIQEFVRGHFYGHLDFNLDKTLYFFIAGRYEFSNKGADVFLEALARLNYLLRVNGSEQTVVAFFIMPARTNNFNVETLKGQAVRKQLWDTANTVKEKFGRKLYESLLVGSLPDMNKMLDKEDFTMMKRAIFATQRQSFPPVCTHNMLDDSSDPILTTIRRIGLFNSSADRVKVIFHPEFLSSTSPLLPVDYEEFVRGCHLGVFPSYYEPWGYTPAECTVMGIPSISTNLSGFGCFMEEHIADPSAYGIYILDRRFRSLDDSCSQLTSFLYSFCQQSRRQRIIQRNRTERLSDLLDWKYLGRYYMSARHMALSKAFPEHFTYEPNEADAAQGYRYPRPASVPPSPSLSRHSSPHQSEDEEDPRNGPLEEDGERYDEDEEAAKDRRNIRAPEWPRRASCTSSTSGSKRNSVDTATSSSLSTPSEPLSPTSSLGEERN
UniProt P29084: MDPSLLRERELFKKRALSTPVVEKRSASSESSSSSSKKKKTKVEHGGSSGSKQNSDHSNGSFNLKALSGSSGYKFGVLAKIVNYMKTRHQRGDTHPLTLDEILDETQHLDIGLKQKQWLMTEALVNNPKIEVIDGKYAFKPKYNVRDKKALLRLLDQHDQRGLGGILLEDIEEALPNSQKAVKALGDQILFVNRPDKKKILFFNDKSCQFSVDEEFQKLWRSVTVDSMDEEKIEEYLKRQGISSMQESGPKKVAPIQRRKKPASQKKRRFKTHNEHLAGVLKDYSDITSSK
UniProt P09211: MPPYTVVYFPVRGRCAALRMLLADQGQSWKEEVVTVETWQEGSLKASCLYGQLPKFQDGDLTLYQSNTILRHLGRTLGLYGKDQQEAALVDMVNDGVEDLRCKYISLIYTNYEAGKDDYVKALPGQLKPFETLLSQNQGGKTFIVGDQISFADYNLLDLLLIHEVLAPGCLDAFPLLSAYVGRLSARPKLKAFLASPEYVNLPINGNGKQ
UniProt O14929: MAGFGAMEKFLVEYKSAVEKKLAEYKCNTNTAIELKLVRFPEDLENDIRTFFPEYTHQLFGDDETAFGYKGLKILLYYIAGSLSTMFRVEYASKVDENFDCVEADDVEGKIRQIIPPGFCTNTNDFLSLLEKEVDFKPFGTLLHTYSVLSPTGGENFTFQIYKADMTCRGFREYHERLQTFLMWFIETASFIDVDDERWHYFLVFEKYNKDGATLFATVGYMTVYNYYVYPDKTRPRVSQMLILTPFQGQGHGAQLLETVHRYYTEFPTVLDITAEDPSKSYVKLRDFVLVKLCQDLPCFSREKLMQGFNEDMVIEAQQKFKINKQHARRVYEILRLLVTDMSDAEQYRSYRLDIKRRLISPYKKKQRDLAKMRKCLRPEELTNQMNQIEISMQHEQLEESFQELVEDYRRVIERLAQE
UniProt Q92664: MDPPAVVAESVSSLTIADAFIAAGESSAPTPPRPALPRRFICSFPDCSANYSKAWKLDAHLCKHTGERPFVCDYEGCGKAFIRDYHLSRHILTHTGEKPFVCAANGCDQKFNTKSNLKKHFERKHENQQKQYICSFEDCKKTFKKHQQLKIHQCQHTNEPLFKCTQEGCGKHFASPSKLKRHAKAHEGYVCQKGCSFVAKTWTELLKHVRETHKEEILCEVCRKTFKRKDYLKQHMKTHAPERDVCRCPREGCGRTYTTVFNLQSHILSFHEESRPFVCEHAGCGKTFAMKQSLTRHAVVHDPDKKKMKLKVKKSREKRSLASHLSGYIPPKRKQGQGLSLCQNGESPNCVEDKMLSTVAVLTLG
UniProt P42694: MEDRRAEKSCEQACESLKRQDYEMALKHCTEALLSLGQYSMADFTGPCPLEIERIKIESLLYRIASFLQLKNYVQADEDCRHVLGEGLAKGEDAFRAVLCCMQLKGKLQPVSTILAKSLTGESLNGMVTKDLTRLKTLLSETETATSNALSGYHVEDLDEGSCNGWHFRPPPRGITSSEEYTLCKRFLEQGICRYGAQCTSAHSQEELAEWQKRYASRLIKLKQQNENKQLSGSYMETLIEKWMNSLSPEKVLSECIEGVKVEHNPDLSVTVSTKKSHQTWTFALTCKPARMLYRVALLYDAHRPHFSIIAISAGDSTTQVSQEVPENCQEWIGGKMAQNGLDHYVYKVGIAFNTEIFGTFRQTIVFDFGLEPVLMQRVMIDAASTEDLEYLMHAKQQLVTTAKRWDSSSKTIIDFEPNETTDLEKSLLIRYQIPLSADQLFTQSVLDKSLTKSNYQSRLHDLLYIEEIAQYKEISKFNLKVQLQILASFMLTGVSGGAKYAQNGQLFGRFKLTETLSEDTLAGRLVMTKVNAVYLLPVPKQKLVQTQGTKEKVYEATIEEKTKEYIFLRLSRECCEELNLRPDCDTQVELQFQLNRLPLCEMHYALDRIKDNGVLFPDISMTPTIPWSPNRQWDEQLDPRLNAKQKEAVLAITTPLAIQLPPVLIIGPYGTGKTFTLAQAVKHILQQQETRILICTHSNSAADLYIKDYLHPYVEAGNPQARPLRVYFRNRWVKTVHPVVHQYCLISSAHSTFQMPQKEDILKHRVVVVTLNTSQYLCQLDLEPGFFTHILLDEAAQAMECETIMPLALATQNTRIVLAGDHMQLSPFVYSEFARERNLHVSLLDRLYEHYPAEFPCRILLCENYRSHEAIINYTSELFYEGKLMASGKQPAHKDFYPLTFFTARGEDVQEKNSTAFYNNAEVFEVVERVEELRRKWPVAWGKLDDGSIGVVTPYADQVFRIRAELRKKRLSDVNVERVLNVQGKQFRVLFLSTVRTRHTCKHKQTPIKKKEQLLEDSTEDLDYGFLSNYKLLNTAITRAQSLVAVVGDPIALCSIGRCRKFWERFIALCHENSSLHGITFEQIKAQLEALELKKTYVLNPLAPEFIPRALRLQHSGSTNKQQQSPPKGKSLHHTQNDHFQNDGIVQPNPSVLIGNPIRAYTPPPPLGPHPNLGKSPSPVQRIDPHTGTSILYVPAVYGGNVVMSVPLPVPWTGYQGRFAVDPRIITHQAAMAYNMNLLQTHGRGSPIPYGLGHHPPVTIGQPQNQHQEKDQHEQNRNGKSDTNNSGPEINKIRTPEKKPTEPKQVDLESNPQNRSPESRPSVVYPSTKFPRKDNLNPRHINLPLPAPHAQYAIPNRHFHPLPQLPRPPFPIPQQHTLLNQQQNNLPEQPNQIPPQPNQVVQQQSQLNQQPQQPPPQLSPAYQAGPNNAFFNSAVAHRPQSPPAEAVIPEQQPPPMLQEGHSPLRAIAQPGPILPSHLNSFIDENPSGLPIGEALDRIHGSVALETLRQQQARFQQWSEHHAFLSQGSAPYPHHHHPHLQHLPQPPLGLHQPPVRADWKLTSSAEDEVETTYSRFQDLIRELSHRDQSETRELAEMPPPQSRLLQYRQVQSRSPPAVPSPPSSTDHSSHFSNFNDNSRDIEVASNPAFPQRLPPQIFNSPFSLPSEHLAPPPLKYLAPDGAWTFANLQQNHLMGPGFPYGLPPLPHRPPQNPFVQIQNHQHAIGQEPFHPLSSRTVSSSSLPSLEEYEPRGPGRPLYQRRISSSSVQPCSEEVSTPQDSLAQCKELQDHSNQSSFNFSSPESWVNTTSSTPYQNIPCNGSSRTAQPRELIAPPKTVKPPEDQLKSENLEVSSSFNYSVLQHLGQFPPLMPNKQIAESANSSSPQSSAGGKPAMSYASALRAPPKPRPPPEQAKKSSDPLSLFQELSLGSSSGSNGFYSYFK
UniProt P32780: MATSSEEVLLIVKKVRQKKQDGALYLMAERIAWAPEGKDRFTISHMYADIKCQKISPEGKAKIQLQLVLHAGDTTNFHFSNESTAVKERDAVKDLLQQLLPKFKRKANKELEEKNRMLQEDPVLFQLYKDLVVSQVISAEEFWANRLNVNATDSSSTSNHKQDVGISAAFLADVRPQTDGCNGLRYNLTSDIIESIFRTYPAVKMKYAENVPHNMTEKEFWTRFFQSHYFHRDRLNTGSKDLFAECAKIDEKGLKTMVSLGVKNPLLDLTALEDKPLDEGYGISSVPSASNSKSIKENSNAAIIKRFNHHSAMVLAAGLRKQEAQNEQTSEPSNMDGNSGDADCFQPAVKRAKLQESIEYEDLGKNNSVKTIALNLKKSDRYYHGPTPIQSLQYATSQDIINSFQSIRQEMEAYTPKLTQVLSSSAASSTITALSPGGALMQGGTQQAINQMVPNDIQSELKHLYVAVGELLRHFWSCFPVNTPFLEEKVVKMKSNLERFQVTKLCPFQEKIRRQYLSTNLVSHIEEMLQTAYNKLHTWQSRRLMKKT

Tests used:
Test in all cases: log2 fold change, soluble protein after heating vs DMSO (PISA); higher = thermal stabilisation; K562 cells, 10 uM, 30 min; active = over 0.2 and 3.5 SD of the protein, either way, in both replicates (recomputed)
[1] = compound: CC1=C(C=C(C=C1)NC(=O)C2=CC(=CC=C2)C(C)(C)C#N)NC3=CC4=C(C=C3)N=CN(C4=O)C
Summary of the method: (§1)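 K562 cells at 2×10^6 cells/mL were treated with 10 μM compound for 30 min. Aliquots were heated for 3 min across 48°C-58°C, pooled, and extracted in PBS with 0.5% NP-40 at 4°C; soluble protein was the supernatant after 21,000xg for 90 min. Soluble protein was quantified by TMTpro 16plex LC-MS/MS with channel sums equalised, and reported as log2 fold change in thermal stability against DMSO controls, with values from duplicates.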

[2] = compound: CC1=C(C=C(C=C1)NC(=O)C2=CC(=CC=C2)N(C)C)NC(=O)C3=CC=C(C=C3)O
Summary of the method: as §1

[3] = compound: CC1=CC=C(C=C1)SC2=C3C=C(SC3=CN=C2)C(=O)N
Summary of the method: as §1

[4] = compound: CC1=NC(=CC=C1)C2=C(N=C(N2)C(C)(C)C)C3=CC4=NC=CN=C4C=C3
Summary of the method: as §1

Nexturastat A = compound: CCCCN(Cc1ccc(C(=O)NO)cc1)C(=O)Nc1ccccc1 [Nexturastat A]
Summary of the method: as §1

vemurafenib = compound: CCCS(=O)(=O)Nc1ccc(F)c(C(=O)c2c[nH]c3ncc(-c4ccc(Cl)cc4)cc23)c1F [vemurafenib]
Summary of the method: as §1

[5] = compound: CCCS(=O)(=O)Nc1ccc(F)c(C(=O)c2c[nH]c3ncc(Cl)cc23)c1F
Summary of the method: as §1

[6] = compound: CCCc1cc(C)[nH]c(=O)c1CNC(=O)c1cc(-c2ccnc(N3CCN(C)CC3)c2)cc2c1cnn2C(C)C
Summary of the method: as §1

barasertib = compound: CCN(CCCOc1ccc2c(Nc3cc(CC(=O)Nc4cccc(F)c4)[nH]n3)ncnc2c1)CCOP(=O)(O)O [barasertib]
Summary of the method: as §1

[7] = compound: CC[C@@H]1C(=O)N(C)c2cnc(Nc3ccc(C(=O)NC4CCN(C)CC4)cc3OC)nc2N1C1CCCC1
Summary of the method: as §1

volasertib = compound: CC[C@@H]1C(=O)N(C)c2cnc(Nc3ccc(C(=O)N[C@H]4CC[C@H](N5CCN(CC6CC6)CC5)CC4)cc3OC)nc2N1C(C)C [volasertib]
Summary of the method: as §1

[8] = compound: CC[C@H](C)N1C=C(C2=C(C=C(C=C21)C3=CN=C(C=C3)N4CCNCC4)C(=O)NCC5=C(C=C(NC5=O)C)C)C
Summary of the method: as §1

epoxomicin = compound: CC[C@H](C)[C@@H](C(=O)N[C@@H]([C@@H](C)O)C(=O)N[C@@H](CC(C)C)C(=O)[C@]1(CO1)C)NC(=O)[C@H]([C@@H](C)CC)N(C)C(=O)C [epoxomicin]
Summary of the method: as §1

[9] = compound: CCn1cc(-c2ccnc3[nH]c(-c4cccc(CN(C)C)c4)cc23)c(-c2ccc(NC(=O)N(C)C)cc2)n1
Summary of the method: as §1

[10] = compound: CN(C)CC(=O)Nc1ccc2[nH]c(=O)c3ccccc3c2c1
Summary of the method: as §1

[11] = compound: CN1C2=C(C3=C1C(=O)N(N=C3)CC4=CC(=CC=C4)N)SC(=C2)S(=O)C
Summary of the method: as §1

[12] = compound: CN1CCC(CNc2ccc3ncc(-c4cccc(OC(F)(F)F)c4)n3n2)CC1
Summary of the method: as §1

givinostat = compound: CCN(CC)Cc1ccc2cc(COC(=O)Nc3ccc(C(=O)NO)cc3)ccc2c1 [givinostat]
Summary of the method: as §1

[13] = compound: CCn1c(C(=O)N(C2CC2)C2CC2)cc2c3c(ncn3C)c(Nc3cc(C)n(C)n3)nc21
Summary of the method: as §1

rosiglitazone = compound: CN(CCOC1=CC=C(C=C1)C[C@H]2C(=O)NC(=O)S2)C3=CC=CC=N3 (racemic) [rosiglitazone]
Summary of the method: as §1

| Target | log2 fold change [1] | log2 fold change [2] | log2 fold change [3] | log2 fold change [4] | log2 fold change (Nexturastat A) | log2 fold change (vemurafenib) | log2 fold change [5] | log2 fold change [6] | log2 fold change (barasertib) | log2 fold change [7] | log2 fold change (volasertib) | log2 fold change [8] | log2 fold change (epoxomicin) | log2 fold change [9] | log2 fold change [10] | log2 fold change [11] | log2 fold change [12] | log2 fold change (givinostat) | log2 fold change [13] | log2 fold change (rosiglitazone) |
| --- | --- | --- | --- | --- | --- | --- | --- | --- | --- | --- | --- | --- | --- | --- | --- | --- | --- | --- | --- | --- |
| HDAC2 (UniProt Q92769) | inactive: -0.051 | inactive: -0.001 | inactive: 0.015 | inactive: -0.006 | active: 0.856 | inactive: -0.005 | inactive: 0.019 | inactive: -0.018 | inactive: -0.039 | inactive: 0.024 | inactive: -0.051 | inactive: 0.026 | inactive: -0.049 | inactive: -0.001 | inactive: -0.003 | inactive: -0.041 | inactive: 0.056 | – | – | – |
| H2AFX (UniProt P16104) | inactive: -0.088 | inactive: -0.006 | inactive: -0.231 | inactive: -0.073 | inactive: 0.754 | inactive: -0.232 | inactive: 0.329 | inactive: 0.1 | inactive: -0.11 | inactive: 0.002 | inactive: 0.214 | inactive: -0.096 | inactive: -0.237 | inactive: 0.279 | inactive: -0.213 | inactive: 0.501 | inactive: 0.082 | inactive: 0.328 | – | – |
| HAGHL (UniProt Q6PII5) | inactive: 0.018 | inactive: 0.288 | inactive: -0.108 | inactive: -0.059 | inactive: 0.029 | – | inactive: -0.047 | inactive: -0.025 | inactive: 0.086 | inactive: 0.068 | inactive: 0.003 | – | inactive: -0.01 | – | – | inactive: 0.024 | – | inactive: 0.067 | inactive: -0.035 | inactive: -0.103 |
| GYS1 (UniProt P13807) | inactive: 0.057 | inactive: -0.04 | inactive: -0.068 | inactive: -0.13 | inactive: 0.515 | inactive: 0.052 | inactive: -0.01 | inactive: 0.091 | inactive: -0.033 | inactive: 0.229 | inactive: 0.224 | inactive: 0.059 | inactive: -0.034 | inactive: 0.139 | inactive: 0.029 | inactive: 0.364 | inactive: 0.123 | inactive: 0.108 | – | – |
| GTF2E2 (UniProt P29084) | inactive: 0.045 | inactive: -0.068 | inactive: -0.01 | inactive: 0.02 | inactive: 0.082 | inactive: 0.057 | inactive: -0.039 | inactive: 0.055 | inactive: 0.035 | inactive: -0.11 | active: -0.265 | inactive: 0.105 | inactive: 0.099 | inactive: 0.001 | inactive: 0.069 | inactive: 0.027 | inactive: -0.103 | inactive: 0.059 | – | – |
| H3-2 (UniProt Q5TEC6) | inactive: -0.335 | inactive: 0.053 | inactive: -0.326 | inactive: -0.03 | – | inactive: -0.808 | inactive: -0.578 | inactive: -0.616 | inactive: -0.056 | inactive: 0.073 | inactive: 0.033 | inactive: -0.218 | – | inactive: 0.15 | inactive: -0.436 | – | inactive: -0.155 | inactive: 0.037 | inactive: -0.007 | inactive: -0.052 |
| GSTP1 (UniProt P09211) | inactive: 0.006 | inactive: -0.003 | inactive: 0.008 | inactive: 0.008 | inactive: -0.108 | inactive: 0.022 | inactive: -0.006 | inactive: -0.1 | inactive: 0.023 | active: 0.295 | active: 0.362 | inactive: 0.009 | inactive: -0.025 | inactive: 0.012 | inactive: -0.013 | inactive: -0.066 | inactive: -0.034 | inactive: -0.019 | – | – |
| HAT1 (UniProt O14929) | inactive: 0.042 | inactive: -0.037 | inactive: 0.008 | inactive: 0.095 | inactive: -0.034 | inactive: 0.087 | inactive: 0.013 | inactive: 0.007 | inactive: 0.025 | inactive: -0.185 | active: -0.313 | inactive: 0.02 | inactive: 0.035 | inactive: -0.057 | inactive: -0.007 | inactive: -0.081 | inactive: 0.026 | inactive: 0.005 | – | – |
| GTF3A (UniProt Q92664) | inactive: 0.074 | – | inactive: 0.09 | inactive: 0.125 | inactive: -0.054 | inactive: -0.075 | inactive: 0.078 | inactive: -0.035 | inactive: -0.053 | inactive: -0.128 | inactive: -0.028 | inactive: 0.074 | inactive: -0.101 | inactive: -0.263 | inactive: 0.049 | inactive: 0.016 | active: -0.447 | inactive: -0.048 | – | – |
| HELZ (UniProt P42694) | inactive: 0.056 | inactive: -0.064 | inactive: 0.02 | inactive: -0.12 | – | inactive: -0.404 | inactive: 0.087 | inactive: -0.032 | inactive: 0.052 | inactive: 0.11 | inactive: -0.128 | inactive: 0.075 | – | inactive: 0.041 | inactive: -0.138 | inactive: 0.238 | inactive: 0.02 | inactive: 0.093 | inactive: -0.114 | inactive: -0.122 |
| GTF2H1 (UniProt P32780) | – | inactive: -0.191 | – | inactive: -0.032 | – | inactive: -0.316 | – | inactive: 0.151 | – | inactive: -0.278 | – | – | – | inactive: 0.081 | inactive: -0.122 | – | inactive: 0.03 | inactive: 0.02 | inactive: -0.094 | – |
